Measurements taken from US20230103885A1.
No constants are given. Whether binding was seen depends on the method and setting.

Tests used:
[1] = target: anti-BCMA CAR comprising an anti-BCMA scFV; assay: flow cytometry on CAR T cells, microscale purified antibody at various dilutions
[2] = target: anti-CD70 CAR comprising an anti-CD70 scFV; assay: as above
[3] = target: anti-BCMA CAR comprising an anti-BCMA scFV; assay: flow cytometry, dilution series (1:100 to 1:5000) of microscale-purified 29E4B5 on anti-BCMA CAR T cells, readout %CAR+
[4] = target: anti-CD70 CAR comprising an anti-CD70 scFV; assay: flow cytometry, dilution series (1:100 to 1:5000) of microscale-purified 29E4B5 on anti-CD70 CAR T cells, readout %CAR+

binding [1]: no binding
binding [2]: no binding
binding [3]: no binding (tested: 1:100 dilution)
binding [4]: no binding (tested: 1:100 dilution)
B1: mouse anti-FMC63-scFv monoclonal antibody 29E4B5 (antibody, mouse IgG1, kappa, V domains shown)
VH: EVKLLQSGGGLVQPGGSLKLSCAASGIDFSRYWMSWVRRAPGKGLEWIGEINLDSSTKNYAPSLKDKFIISRDNAKNTLYLQMSKVRSEDTALYYCARNYVGMDYWGQGTSVTVSS
VL: DIVLTQSPASLAVSLGQRATISCRASKSVSSSDYTYMHWYQQKPGQPPKLLIYLASNLESGVPARFSGSGSGTDFTLNIHPVEEEDAATYYCQHSRELPPTFGGGTKLEIKR
